The source of these data is publication PMC5996148.

Chains of the proteins cited; added tags and fusions are not shown. Lines headed by an entry give the natural chain unless they say otherwise; changes in a name come on top.
UniProt Q15059: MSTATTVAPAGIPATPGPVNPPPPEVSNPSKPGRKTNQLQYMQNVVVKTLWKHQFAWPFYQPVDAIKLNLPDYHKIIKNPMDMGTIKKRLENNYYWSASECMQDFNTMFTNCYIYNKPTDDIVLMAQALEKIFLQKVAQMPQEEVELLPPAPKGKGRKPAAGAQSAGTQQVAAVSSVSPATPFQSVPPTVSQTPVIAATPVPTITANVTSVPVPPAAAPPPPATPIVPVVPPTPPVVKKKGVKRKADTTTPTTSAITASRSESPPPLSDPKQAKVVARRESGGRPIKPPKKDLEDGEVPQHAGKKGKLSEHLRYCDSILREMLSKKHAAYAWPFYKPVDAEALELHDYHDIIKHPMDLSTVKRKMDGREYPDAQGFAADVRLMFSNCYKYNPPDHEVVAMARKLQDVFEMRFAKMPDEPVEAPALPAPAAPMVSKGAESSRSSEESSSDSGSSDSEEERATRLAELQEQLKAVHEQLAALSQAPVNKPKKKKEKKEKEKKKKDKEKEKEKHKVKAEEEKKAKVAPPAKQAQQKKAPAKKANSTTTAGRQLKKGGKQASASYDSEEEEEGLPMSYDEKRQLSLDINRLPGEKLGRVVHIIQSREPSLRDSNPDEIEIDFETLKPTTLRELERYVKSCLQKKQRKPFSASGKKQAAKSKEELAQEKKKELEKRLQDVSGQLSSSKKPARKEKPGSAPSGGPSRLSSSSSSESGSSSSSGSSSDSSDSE

Common to all, as to assay: protein microarray (ProtoArray v5.0), streptavidin-Alexa Fluor 647
Conditions in all cases: 3'-biotin; 20 mM Tris (pH 7.5), 5 mM MgCl2, 100 mM KCl, 0.1% Tween-20, A/T-rich and random oligonucleotide blockers; temperature not stated; high values mean tight binding

One assay addresses T1, BIN1 (UniProt O00499).
T1 sequence: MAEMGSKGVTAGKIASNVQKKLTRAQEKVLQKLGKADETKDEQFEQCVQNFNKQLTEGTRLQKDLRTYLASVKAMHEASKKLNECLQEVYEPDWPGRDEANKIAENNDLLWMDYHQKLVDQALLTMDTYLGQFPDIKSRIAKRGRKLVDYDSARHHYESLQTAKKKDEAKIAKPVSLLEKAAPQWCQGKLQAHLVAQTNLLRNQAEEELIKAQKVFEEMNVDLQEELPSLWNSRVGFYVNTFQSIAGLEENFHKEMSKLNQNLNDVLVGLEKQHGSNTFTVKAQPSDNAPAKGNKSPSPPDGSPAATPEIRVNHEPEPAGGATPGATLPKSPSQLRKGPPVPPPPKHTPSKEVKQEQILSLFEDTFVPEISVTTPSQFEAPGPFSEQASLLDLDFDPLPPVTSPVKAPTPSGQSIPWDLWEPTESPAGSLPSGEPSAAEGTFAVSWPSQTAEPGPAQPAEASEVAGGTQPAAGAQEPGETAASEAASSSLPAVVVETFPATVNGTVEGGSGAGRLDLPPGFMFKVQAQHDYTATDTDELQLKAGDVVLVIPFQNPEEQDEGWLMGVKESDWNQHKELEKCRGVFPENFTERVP

A further assay has as its system BIRC5 (human).
The test system of a further assay is BIRC7 (human).
A further assay concerns BLVRB (human).
The subject of the next assay is BMF (human).
The target of another assay is BRD3 (UniProt Q15059).
The test system of a further assay is BRD9 (human).
The target of the next assay is T2, BSG (UniProt P35613).
T2 sequence: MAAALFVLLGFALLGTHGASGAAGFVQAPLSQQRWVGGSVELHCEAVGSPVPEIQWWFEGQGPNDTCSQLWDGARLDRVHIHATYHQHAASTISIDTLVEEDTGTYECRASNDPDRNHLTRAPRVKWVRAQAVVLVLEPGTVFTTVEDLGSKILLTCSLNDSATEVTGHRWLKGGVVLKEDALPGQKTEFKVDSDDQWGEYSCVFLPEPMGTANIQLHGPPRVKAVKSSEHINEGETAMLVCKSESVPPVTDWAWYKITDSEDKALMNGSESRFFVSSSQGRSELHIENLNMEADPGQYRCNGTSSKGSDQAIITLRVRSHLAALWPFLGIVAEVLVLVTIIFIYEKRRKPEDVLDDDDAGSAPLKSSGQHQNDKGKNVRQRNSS

The test system of another assay is BTG2 (human).
For the next assay, the target named is T3, BUD31 (UniProt P41223).
T3 sequence: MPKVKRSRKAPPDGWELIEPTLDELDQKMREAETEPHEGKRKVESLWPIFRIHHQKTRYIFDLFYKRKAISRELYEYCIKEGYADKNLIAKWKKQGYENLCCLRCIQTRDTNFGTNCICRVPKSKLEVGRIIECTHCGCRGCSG

Several values for one entry are separate records, joined by “and”; a condition that tells them apart may be missing. Equal values may be shown once. The list shows a part of the results. For some of these results: Construct or isoform of the protein are uncertain.

With “GGGGACAGGGGTATGGGGAGGGG [G4-3 biotinylated (CtG)]”, the binding signal is -0.332 z-score and -0.328 z-score in the assay with BIN1; -0.333 z-score in the assay with BIRC5 (human); -0.325 z-score in the assay with BIRC7 (human); -0.316 z-score in the assay on BLVRB (human); -0.337 z-score and -0.336 z-score in the assay on BMF (human); 4.51 z-score with BRD3. The binding signal is -0.335 z-score in the assay on BRD9 (human), -0.303 z-score in the assay with BSG, -0.32 z-score in the assay with BTG2 (human) and 3.1 z-score in the assay with BUD31.
